From publication PMC7295574
Results are given in words; binding and its absence hold for the method and conditions named. Some results given as binding are weak or reduced against the parent protein; the word gives no strength. Sequences can lack the tags named with a protein.

Key:
[1] = target: T1, TMEM95 entire ectodomain, monomeric biotinylated bait (mouse) (UniProt P0DJF3); test: AVEXIS (avidity-based extracellular interaction screening); biotinylated monomeric baits, dialyzed against HBS, immobilised on streptavidin-coated 96-well plates; pentameric beta-lactamase-tagged preys incubated one hour; washed with HBS/0.1% Tween-20; nitrocefin hydrolysis read as absorbance at 485 nm
T1 sequence (chain, biotinylated (site not stated)): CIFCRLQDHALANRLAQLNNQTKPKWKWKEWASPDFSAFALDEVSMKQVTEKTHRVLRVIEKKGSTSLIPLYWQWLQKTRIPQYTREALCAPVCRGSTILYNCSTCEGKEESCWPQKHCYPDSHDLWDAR

[2] = target: T2, CD200R entire ectodomain, biotinylated bait (rat) (UniProt Q9ES58); test: as above
T2 sequence (chain, biotinylated (site not stated)): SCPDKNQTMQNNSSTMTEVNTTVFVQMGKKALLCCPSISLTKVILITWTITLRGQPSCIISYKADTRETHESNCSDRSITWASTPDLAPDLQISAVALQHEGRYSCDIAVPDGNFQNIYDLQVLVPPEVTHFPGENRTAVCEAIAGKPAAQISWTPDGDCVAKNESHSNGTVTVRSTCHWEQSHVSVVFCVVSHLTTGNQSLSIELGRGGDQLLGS

B1: CD200 entire ectodomain, pentameric beta-lactamase-tagged prey (domain or fragment, UniProt P04218 31-232)
chain: QVEVVTQDERKLLHTTASLRCSLKTTQEPLIVTWQKKKAVGPENMVTYSKAHGVVIQPTYKDRINITELGLLNTSITFWNTTLDDEGCYMCLFNMFGSGKVSGTACLTLYVQPIVHLHYNYFEDHLNITCSATARPAPAISWKGTGSGIENSTESHSHSNGTTSVTSILRVKDPKTQVGKEVICQVLYLGNVIDYKQSLDKG
B1 was tested, and the binding [1] was “no binding” and the binding [2] was “binds”.

B2: IZUMO1 entire ectodomain, pentameric beta-lactamase-tagged prey (domain or fragment, UniProt Q9D9J7 22-319)
chain: CIKCDQFVTDALKTFENTYLNDHLPHDIHKNVMRMVNHEVSSFGVVTSAEDSYLGAVDENTLEQATWSFLKDLKRITDSDLKGELFIKELLWMLRHQKDIFNNLARQFQKEVLCPNKCGVMSQTLIWCLKCEKQLHICRKSLDCGERHIEVHRSEDLVLDCLLSWHRASKGLTDYSFYRVWENSSETLIAKGKEPYLTKSMVGPEDAGNYRCVLDTINQGHATVIRYDVTVLPPKHSEENQPPNIITQEEHETPVHVTPQTPPGQEPESELYPELHPELYPELIPTVAQNPEKKMKTR
With B2 the binding [1] was “no binding”.
